No constants are given. Whether binding was seen depends on the method and setting. Some results given as binding are weak or reduced against the parent protein; the word gives no strength.
Molecular target: T1, Mas2 subunit of the yeast mitochondrial processing peptidase (MPP) (yeast) (UniProt P11914)
T1 sequence: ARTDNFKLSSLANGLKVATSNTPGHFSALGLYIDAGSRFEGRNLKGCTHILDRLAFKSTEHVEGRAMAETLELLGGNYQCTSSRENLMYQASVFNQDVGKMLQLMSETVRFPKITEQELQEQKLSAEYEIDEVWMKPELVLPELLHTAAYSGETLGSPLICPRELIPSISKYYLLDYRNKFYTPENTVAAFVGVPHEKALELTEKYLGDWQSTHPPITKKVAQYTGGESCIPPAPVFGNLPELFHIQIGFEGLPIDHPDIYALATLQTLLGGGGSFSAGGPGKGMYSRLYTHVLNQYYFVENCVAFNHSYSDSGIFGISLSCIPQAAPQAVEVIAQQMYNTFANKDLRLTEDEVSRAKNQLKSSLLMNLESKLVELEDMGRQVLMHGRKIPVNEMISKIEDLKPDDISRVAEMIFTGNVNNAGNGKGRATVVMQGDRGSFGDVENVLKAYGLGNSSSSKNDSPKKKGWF
Assay: co-purification; Mas1 and Mas2 expressed from one 6 x His-tagged MPP construct in E. coli; purified together over nickel affinity gel, HiTrap Heparin and MonoQ; complex shown on SDS-PAGE

B1: Mas1 subunit of the yeast mitochondrial processing peptidase (MPP) (enzyme, UniProt P10507 21-462)
chain: SQIPGTRTSKLPNGLTIATEYIPNTSSATVGIFVDAGSRAENVKNNGTAHFLEHLAFKGTQNRSQQGIELEIENIGSHLNAYTSRENTVYYAKSLQEDIPKAVDILSDILTKSVLDNSAIERERDVIIRESEEVDKMYDEVVFDHLHEITYKDQPLGRTILGPIKNIKSITRTDLKDYITKNYKGDRMVLAGAGAVDHEKLVQYAQKYFGHVPKSESPVPLGSPRGPLPVFCRGERFIKENTLPTTHIAIALEGVSWSAPDYFVALATQAIVGNWDRAIGTGTNSPSPLAVAASQNGSLANSYMSFSTSYADSGLWGMYIVTDSNEHNVQLIVNEILKEWKRIKSGKISDAEVNRAKAQLKAALLLSLDGSTAIVEDIGRQVVTTGKRLSPEEVFEQVDKITKDDIIMWANYRLQNKPVSMVALGNTSTVPNVSYIEEKLNQ
binding: binds
